One substance from article PMC7224386 can be followed below.

Chains of the proteins cited; added tags and fusions are not shown.
UniProt Q9HAU4: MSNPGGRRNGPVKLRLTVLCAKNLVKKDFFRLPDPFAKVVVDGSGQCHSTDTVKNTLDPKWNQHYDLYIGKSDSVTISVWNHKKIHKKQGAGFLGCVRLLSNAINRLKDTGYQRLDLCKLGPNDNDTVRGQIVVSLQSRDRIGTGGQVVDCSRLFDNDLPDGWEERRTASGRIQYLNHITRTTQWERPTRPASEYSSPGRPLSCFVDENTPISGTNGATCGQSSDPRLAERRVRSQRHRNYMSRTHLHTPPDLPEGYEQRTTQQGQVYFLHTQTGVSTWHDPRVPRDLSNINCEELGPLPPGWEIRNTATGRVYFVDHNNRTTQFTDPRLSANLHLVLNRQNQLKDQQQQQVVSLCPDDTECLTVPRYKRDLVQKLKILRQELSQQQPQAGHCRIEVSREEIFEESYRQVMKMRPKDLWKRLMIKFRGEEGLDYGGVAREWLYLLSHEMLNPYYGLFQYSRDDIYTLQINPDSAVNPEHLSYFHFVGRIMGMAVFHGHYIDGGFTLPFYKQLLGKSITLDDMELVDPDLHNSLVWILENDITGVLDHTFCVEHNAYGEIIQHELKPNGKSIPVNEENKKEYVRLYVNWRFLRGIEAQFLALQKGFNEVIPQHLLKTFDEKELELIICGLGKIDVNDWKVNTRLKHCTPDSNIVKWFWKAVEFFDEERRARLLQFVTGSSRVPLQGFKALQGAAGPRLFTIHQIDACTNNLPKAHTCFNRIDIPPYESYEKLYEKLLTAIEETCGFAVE

No constants are given. Whether binding was seen depends on the method and setting. In cells and extracts the contact can be indirect. These calls come from enrichment with a bait or labelling near it, and not all partners need be listed.

The test has as its target T1, TNF receptor-associated factor 4 (TRAF4), endogenous in MSCs (human (endogenous in MSCs)) (UniProt Q9BUZ4).
T1 sequence: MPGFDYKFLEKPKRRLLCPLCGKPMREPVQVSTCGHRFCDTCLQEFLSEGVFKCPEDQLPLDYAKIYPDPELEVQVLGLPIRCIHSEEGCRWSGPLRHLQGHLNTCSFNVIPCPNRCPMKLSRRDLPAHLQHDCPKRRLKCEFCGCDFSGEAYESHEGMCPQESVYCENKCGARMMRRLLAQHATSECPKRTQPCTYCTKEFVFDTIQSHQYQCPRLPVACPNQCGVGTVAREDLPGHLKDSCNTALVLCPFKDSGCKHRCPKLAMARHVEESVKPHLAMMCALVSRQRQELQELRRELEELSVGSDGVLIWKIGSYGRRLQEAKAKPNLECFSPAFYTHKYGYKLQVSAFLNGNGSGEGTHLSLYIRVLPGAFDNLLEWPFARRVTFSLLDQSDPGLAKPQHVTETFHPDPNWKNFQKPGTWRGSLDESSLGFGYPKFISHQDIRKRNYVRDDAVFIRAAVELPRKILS
The experiment in a line: affinity purification with mass spectrometry; MSCs during osteogenesis, extracts in modified RIPA buffer; immunoprecipitation with anti-TRAF4 and protein-G agarose at 4 °C; SDS-PAGE, Coomassie blue, differential bands analysed by LC-MS/MS.

“Smad ubiquitination-related factor 2 (Smurf2), endogenous in MSCs (from UniProt Q9HAU4 1-748)”: the binding result is given as “binds”.
